Source: PubChem BioAssay AID1259405 (NCATS, 2018)
The deposit covers about 50,000 reagents; below is an unselected part. Over the whole deposit, about 4,000 (8%) got an active call. 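Mouse siRNA library applied to hamster cells; one well for each siRNA.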

Test: 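Knock-downs that lift recombinant protein yield in hamster ovary cells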 (primary screen)
Cells: Chinese hamster CHO-K1 ovary cells with stable secreted eGFP expression
Reagents: single siRNA against mouse genes, 0.8 pmol siRNA per well (2 µl of 400 nM stock)
Time to read-out: 3 days
Measurement: 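Percent of the per-plate non-targeting control median for intracellular GFP per well by laser scanning cytometry and for cell viability by ATP luminescence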
Reading the numbers: GFP, % of control: higher = more GFP per well, higher productivity; viability (ATP), % of control: higher = more viable cells (more ATP)
Active means: 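Called active when intracellular GFP, relative to negative control, is at or above 120%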

The first 13 records, ahead of the listing:
target,PubChem SID,"GFP, % of control","viability (ATP), % of control",outcome
Poln,SID363569554,123,69.7,active
Poln,SID363577298,69.8,84.2,inactive
Poln,SID363578706,83.4,88.9,inactive
Aamdc,SID363543618,57.5,84.4,inactive
Aamdc,SID363553111,57.3,56.8,inactive
Aamdc,SID363558959,82.5,94.7,inactive
Apbb2,SID363546754,68.7,51.7,inactive
Apbb2,SID363548510,99.1,91.8,inactive
Apbb2,SID363560688,58.9,67.4,inactive
Sp2,SID363569026,112,95.5,inactive
Sp2,SID363583458,45.6,72.5,inactive
Cnr1,SID363571246,79.7,45.1,inactive
Cnr1,SID363571598,66,72.4,inactive

Results, from the start:
target,PubChem SID,"GFP, % of control","viability (ATP), % of control",outcome
Poln,SID363569554,123,69.7,active
Poln,SID363577298,69.8,84.2,inactive
Poln,SID363578706,83.4,88.9,inactive
Aamdc,SID363543618,57.5,84.4,inactive
Aamdc,SID363553111,57.3,56.8,inactive
Aamdc,SID363558959,82.5,94.7,inactive
Apbb2,SID363546754,68.7,51.7,inactive
Apbb2,SID363548510,99.1,91.8,inactive
Apbb2,SID363560688,58.9,67.4,inactive
Sp2,SID363569026,112,95.5,inactive
Sp2,SID363583458,45.6,72.5,inactive
Cnr1,SID363571246,79.7,45.1,inactive
Cnr1,SID363571598,66,72.4,inactive
Cnr1,SID363571950,50.2,30.4,inactive
Il9r,SID363568694,103,101,inactive
Il9r,SID363576086,50.4,35.3,inactive
Il9r,SID363578902,86.3,85.4,inactive
Dusp4,SID363573209,93.2,67.4,inactive
Dusp4,SID363588448,72.9,80.2,inactive
Krt78,SID363572148,50.5,52.1,inactive
Krt78,SID363573908,79.1,73.7,inactive
Gja8,SID363572657,102,56,inactive
Gja8,SID363577937,56.9,61.7,inactive
Gja8,SID363582161,71.9,123,inactive
Kank3,SID363539703,59,69.4,inactive
Kank3,SID363561004,68.4,52.1,inactive
Kank3,SID363565094,73.5,51.9,inactive
Fbxw8,SID363540074,41.6,70.7,inactive
Fbxw8,SID363561375,37.5,52,inactive
Fbxw8,SID363564411,82.1,45.1,inactive
Rbfox2,SID363546002,96.4,75.5,inactive
Rbfox2,SID363549515,87.2,84.5,inactive
Rbfox2,SID363563321,81.7,56.3,inactive
Or4k36,SID363554106,59.6,44.4,inactive
Or4k36,SID363567553,63.5,37.6,inactive
Or4k36,SID363584910,59.3,98.6,inactive
Tnfaip2,SID363556404,87.3,104,inactive
Tnfaip2,SID363586854,107,108,inactive
Tnfaip2,SID363588962,181,113,active
Wdr91,SID363542709,63.8,38.6,inactive
Wdr91,SID363546226,60.6,58.3,inactive
Wdr91,SID363547982,74.1,81.5,inactive
Magea9-ps,SID363562326,94.5,81.3,inactive
Magea9-ps,SID363567464,75.7,84.4,inactive
Magea9-ps,SID363584821,75.1,46.4,inactive
Chn1,SID363545333,83.9,49.2,inactive
Chn1,SID363548846,86.6,89.7,inactive
Chn1,SID363562652,51.7,49.9,inactive
Pofut2,SID363554514,43.9,28.7,inactive
Pofut2,SID363567961,77.5,63.7,inactive
Pofut2,SID363586020,62.7,85.2,inactive
Ero1b,SID363572868,98.6,94.8,inactive
Ero1b,SID363577444,89.8,96.3,inactive
Ero1b,SID363580964,71.5,76.8,inactive
Amfr,SID363572696,68.3,65.1,inactive
Amfr,SID363577976,70.7,82.3,inactive
Amfr,SID363582200,93.4,106,inactive
Rnf170,SID363555054,79.3,84.9,inactive
Rnf170,SID363568501,67.5,73.9,inactive
Rnf170,SID363586560,58.9,71.8,inactive
Ifi35,SID363540213,73.3,72,inactive
Ifi35,SID363541965,93.1,82.4,inactive
Ifi35,SID363566881,81.8,48.1,inactive
Ghrhr,SID363571088,61.6,55.7,inactive
Ghrhr,SID363571440,98.7,61.6,inactive
Ghrhr,SID363571792,81.8,90.3,inactive
Smg5,SID363540247,47.7,58.2,inactive
Smg5,SID363541999,81.4,46.6,inactive
Smg5,SID363566915,73.4,105,inactive
Slco1a1,SID363547741,165,67.9,active
Slco1a1,SID363558510,60.2,80.5,inactive
Slco1a1,SID363560268,55.6,92.6,inactive
Ift52,SID363546902,56.8,56.6,inactive
Ift52,SID363549714,50.3,51.4,inactive
Ift52,SID363587768,76.6,62.8,inactive
Snx17,SID363554855,58.9,70.6,inactive
Snx17,SID363568302,76.6,59.1,inactive
Snx17,SID363586361,58.2,58.3,inactive
Slc67a2,SID363547874,34.9,34.2,inactive
Slc67a2,SID363558643,87.5,98.5,inactive
Slc67a2,SID363560401,101,91.9,inactive
Rbm45,SID363569549,92,85.3,inactive
Rbm45,SID363577293,87.7,86.8,inactive
Rbm45,SID363578701,57.7,57.5,inactive
Or4p19,SID363554327,70.7,37,inactive
Or4p19,SID363567774,20.4,67.5,inactive
Or4p19,SID363585131,31,73.9,inactive
Dlk2,SID363553767,86.6,77.7,inactive
Dlk2,SID363561724,89.8,69.5,inactive
Dlk2,SID363565462,102,34.4,inactive
Ccdc92b,SID363540193,79.5,105,inactive
Ccdc92b,SID363541945,83.1,64.7,inactive
Ccdc92b,SID363566861,93.5,71.1,inactive
Ebf4,SID363539624,80.7,97.5,inactive
Ebf4,SID363560925,87.1,79.7,inactive
Ebf4,SID363565015,107,50.9,inactive
Coq2,SID363568720,76.7,92.4,inactive
Coq2,SID363576112,81.4,69.8,inactive
Coq2,SID363578928,65.9,54.9,inactive
Grid2ip,SID363572157,55.1,70.7,inactive
Grid2ip,SID363573917,135,103,active
Ski,SID363573727,64,72.2,inactive
Ski,SID363581471,98,99.3,inactive
Ski,SID363583935,87.5,120,inactive
Or13a19,SID363545014,22.6,23.7,inactive
Or13a19,SID363551342,84.4,79.3,inactive
Or13a19,SID363557891,40.5,87,inactive
